Source: PubChem BioAssay AID1347076 (National Center for Advancing Translational Sciences (NCATS), 2019)
The whole screen tested about 400,000 compounds, of which about 13,000 (3.2%) were called active. Inconclusive means that the source gave no clear call. Such entries were picked first, then a sample of the others. Calls come from the whole dose curve; as a rule, active = well fitted cell-killing curve with a large enough effect; inconclusive = small, poorly fitted or top-dose-only effect, or effect the other way; inactive = flat fitted curve, though single readings scatter. Potencies beside an inconclusive call are fits to weak or partial responses and may not hold up. Some structures have more than one record in an assay (separate samples or runs), and their calls can disagree. Where a SMILES comes first, the peptide text is derived from it. [ ]: non-standard residue; d: D form. The star is where a group is joined. ξ: configuration not given here. ξNMe2Val = CC(C)C(C(=O)*)N(C)C; NMeV = CN[CH](C(=O)O)C(C)C; NHBn = c1ccc(CN*)cc1

Test: qHTS assay for MDR1-selective chemotherapeutics: Primary screen using the drug-selected MDR subline cells KB-V1; note: nearly all actives have a fitted effect of over 60% in size
Settings: KB-V1 MDR cells viability, CellTiter-Glo, 72 h; activity change, negative = cytotoxicity: at 46.1 µM (top of the series)
Method in brief: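 KB-V1 MDR subline cells in DMEM (phenol-red free, 10% FBS) exposed to compounds in qHTS concentration series for 72 h at 37 degrees C. Viability read by CellTiter-Glo luminescence; concentration-effect curves fitted after normalization and correction.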
% is set by controls: 0 for no effect and ±100 for the full control effect; potency is the fitted concentration of half-maximal effect.

SMILES | activity change, negative = cytotoxicity | Potency
COC(=O)C1=C(c2cc3ccccc3o2)C[C@@H]2CC[C@H]1N2C(=O)NCCNC(C)=O | inactive: 13.4% | 
C=CCNC(=S)N1Cc2cc(Br)ccc2-n2nncc2C1 | inactive: 8.13% | 
C=CCc1cc(C=C2C(=O)NC(=O)NC2=O)cc(OC)c1OCc1ccc(C(=O)O)cc1 | inactive: 18.6% | 
CCc1ccc(NC(=O)CCNC(=O)N2C[C@H]3C[C@@H](C2)c2cccc(=O)n2C3)cc1 | inconclusive: -5.28% | 
Cn1c(O)c(C(=Nc2ccc(F)cc2)c2ccccc2)c(=O)n(C)c1=O | inactive: -17.9% | 
CCOc1ccccc1N1C(=O)NC(=O)/C(=C/c2ccc3c4c(cccc24)CC3)C1=O |  | inconclusive: 32.6 µM [cytotoxic, single point]
COc1ccc(-c2nc(CN3C(=O)CN=C(c4ccccc4)c4cc(Cl)ccc43)c(C)o2)cc1 |  | inconclusive: 20.6 µM [cytotoxic, partial curve, poor fit]
CSCCC(c1nnnn1Cc1ccccc1)N1CCC2(CC1)C(=O)NCN2c1ccccc1 (configuration not stated) |  | active: 14.6 µM
CCOC(=O)C(O)(c1ccc(NC(=S)NC(=O)c2ccc(Cl)cc2Cl)cc1)C(F)(F)F (configuration not stated) |  | inconclusive: 16.4 µM [cytotoxic, partial curve]
O=[N+]([O-])c1ccc2nc(N3CCNCC3)ccc2c1 | inactive: -2.34% | 
Cc1cc(OCC(=O)N2CCN(CC(=O)N3CCOCC3)CC2)c(C(C)C)cc1Cl | inactive: -10.1% | 
CC(C)n1c(O)c(C2c3cc(Cl)ccc3Oc3[nH]c(=O)n(C(C)C)c(=O)c32)c(=O)[nH]c1=O (configuration not stated) |  | active: 7.31 µM
Cc1ccccc1OCCCn1cc(C(=O)C(=O)N2CCOCC2)c2ccccc21 |  | inconclusive: 16.4 µM [cytotoxic, partial curve]
CCCC12CN3CC(CCC)(CN(C1)C3c1ccccn1)C2=O (configuration not stated) |  | active: 2.59 µM
O=C1NC(=O)N(CCC2=CCCCC2)C(=O)/C1=C/c1ccc(O)cc1 |  | inconclusive: 29.1 µM [rising, single point]
CC1OC(OC2C=C3CCC4C(CCC5(C)C(c6ccc(=O)oc6)CCC45O)C3(C)CC2)C(O)C(OC2OC(CO)C(O)C(O)C2O)C1O (configuration not stated) |  | inconclusive: 0.0052 µM [cytotoxic, full curve, poor fit]
O=c1cccc2n1CC1CC2CN(S(=O)(=O)c2cc(Cl)ccc2Cl)C1 (configuration not stated) | inactive: 16.7% | 
CN(C)CCCNCC(=O)Nc1ccc(Cl)cc1C(=O)c1ccccc1 |  | inconclusive: 29.1 µM [rising, single point]
O=C1NC(=O)C(=Cc2cc(Cl)ccc2OCc2ccc(C(=O)O)cc2)C(=O)N1 | inactive: 0% | 
CC1(C)CC(=O)C2=C(C1)NC(=O)C21C(C(=O)OC(C)(C)C)=C(N)Oc2ccc(Br)cc21 (configuration not stated) |  | inconclusive: 16.4 µM [cytotoxic, single point]
COC(=O)C1=C(c2cccc(OCc3ccccc3)c2)C[C@@H]2CC[C@H]1N2C(=O)NCCCc1ccccc1 |  | inconclusive: 29.1 µM [cytotoxic, single point]
C[C@]12CC[C@H]3[C@@H](CCC4=CC(=O)CC[C@@H]43)[C@@H]1CC[C@@H]2O |  | active: 2.31 µM
Cc1nn(Cc2ccccc2)c(C)c1C(=O)OCC(=O)Nc1cc(S(C)(=O)=O)ccc1Cl |  | inconclusive: 8.2 µM [cytotoxic, partial curve, poor fit]

SMILES | activity change, negative = cytotoxicity | Potency
CC1=C(O)C(=O)C=C2C1=CC=C1C2(C)CCC2(C)C3CC(C)(C(=O)O)CCC3(C)CCC12C (configuration not stated) |  | inconclusive: 2.59 µM [cytotoxic, partial curve, poor fit]
Cc1ccc(S(=O)(=O)N(C)C/N=C(\N)N[N+](=O)[O-])cc1 | inconclusive: -1.74% | 
Cc1ccsc1C(=O)C1CCCN(Cc2cc3ccccc3o2)C1 (configuration not stated) | inactive: 0.371% | 
CC[n+]1c(SC)ccc2cc(OC)ccc21 |  | inconclusive: 1.3 µM [rising, partial curve, poor fit]
C[C@]12CCC3[C@@H](CC[C@@H]4C[C@H](O)CC[C@]34C)[C@@H]1CCC2=O (some centres not stated) |  | inconclusive: 23.1 µM [cytotoxic, single point]
Cc1nn(Cc2ccccc2)c(Cl)c1C(=O)OC(C)C(=O)Nc1ccc(F)cc1Cl (configuration not stated) |  | active: 3.26 µM
CC(C)C(NC(=O)C(C(C)C)N(C)C)C(=O)N(C)C(C(=O)N1CCCC1C(=O)N1CCCC1C(=O)NCc1ccccc1)C(C)C (configuration not stated) (ξNMe2Val-V[NMeV]PP-NHBn; configuration not given here) |  | active: 20.6 µM
O=c1[nH]c2ccccc2n1C1CCN(C(c2ccnc3ccccc23)c2nnnn2-c2ccc3c(c2)OCCO3)CC1 (configuration not stated) |  | inconclusive: 23.1 µM [cytotoxic, single point]
C=CCn1c(O)c(C(C)=NC2CCN(Cc3ccccc3)CC2)c(=O)[nH]c1=O |  | inconclusive: 0.58 µM [cytotoxic, full curve, poor fit]
Cc1c(N=Nc2c(O)n(-c3ccc(Br)cc3)c(=O)[nH]c2=O)c(=O)n(-c2ccccc2)n1C |  | inconclusive: 18.4 µM [cytotoxic, single point]
COC(=O)C1=C(c2cc3ccccc3o2)C[C@@H]2CC[C@H]1N2C(=O)N1CCC(C)CC1 |  | inconclusive: 29.1 µM [cytotoxic, single point]
COc1ccc(-n2c(O)c(C=NCc3ccc4c(c3)OCO4)c(=O)[nH]c2=O)cc1 |  | inconclusive: 3.66 µM [rising, partial curve, poor fit]
C=CCn1c(O)c(C(CC)=NCc2ccc3c(c2)OCO3)c(=O)[nH]c1=O |  | inconclusive: 14.6 µM [cytotoxic, partial curve]
CCC1=Nc2cc(C(=O)N3CCC4(CC3)OCCO4)ccc2Sc2ccc(Br)cc21 | inactive: -7.19% | 
C/C(=N\Nc1ccccc1)c1c(O)n(Cc2ccccc2)c(=O)[nH]c1=O | inactive: -5.01% | 
Cc1cc(=O)oc2c(C)c(OCC(=O)N3CCN(Cc4ccccc4)CC3)ccc12 |  | inconclusive: 2.31 µM [cytotoxic, partial curve, poor fit]
Cc1cc(OCC(=O)NCc2cccnc2)c2c3c(c(=O)oc2c1)CCCC3 |  | inconclusive: 18.4 µM [cytotoxic, partial curve, poor fit]
O=C(N/N=C/c1c(O)n(CCC2=CCCCC2)c(=O)[nH]c1=O)c1ccccc1 |  | inconclusive: 18.4 µM [cytotoxic, single point]
COC(=O)C1=C(c2ccc(Cl)c(C(F)(F)F)c2)C[C@@H]2CC[C@H]1N2C | inactive: 9.2% | 
NS(=O)(=O)c1ccc(N2CCNCC2)cc1 |  | inconclusive: 29.1 µM [rising, partial curve, poor fit]
CCOC(=O)c1c(C)n(Cc2ccccc2)c2ccc(OCC(O)CN3C(=O)CNC3=O)cc12 (configuration not stated) | inactive: -23.9% | 
O=c1[nH]c(=O)n(Cc2ccco2)c(O)c1C=NCc1ccc2c(c1)OCO2 |  | inconclusive: 8.2 µM [cytotoxic, partial curve]
CCCCCCN=C(CC)c1c(O)n(CCCC)c(=O)[nH]c1=O |  | active: 5.17 µM

Part of the list above, set out differently:
SMILES	activity change, negative = cytotoxicity	Potency
CCC1=Nc2cc(C(=O)N3CCC4(CC3)OCCO4)ccc2Sc2ccc(Br)cc21	inactive: -7.19%	
COC(=O)C1=C(c2ccc(Cl)c(C(F)(F)F)c2)C[C@@H]2CC[C@H]1N2C	inactive: 9.2%	
NS(=O)(=O)c1ccc(N2CCNCC2)cc1		inconclusive: 29.1 µM [rising, partial curve, poor fit]
O=c1[nH]c(=O)n(Cc2ccco2)c(O)c1C=NCc1ccc2c(c1)OCO2		inconclusive: 8.2 µM [cytotoxic, partial curve]

Later entries:

SMILES | activity change, negative = cytotoxicity | Potency
O=C1C=C2C=C[C@@H]3CC2(O1)[C@H]1CCCCN31 |  | inconclusive: 16.4 µM [cytotoxic, single point]
c1cc2c(cc1[C@H]1OC[C@H]3[C@@H]1CO[C@@H]3c1ccc3c(c1)OCO3)OCO2 |  | inconclusive: 16.4 µM [cytotoxic, single point]
N#Cc1ccccc1Cn1cc(C(=O)c2ccccc2F)c2ccccc21 |  | active: 2.31 µM
C[C@H]1CCCC(=O)CCC/C=C/c2cc(O)cc(O)c2C(=O)O1 |  | active: 16.4 µM
CN(C)C(Cc1ccccc1)C(=O)c1ccc(-c2ccccc2)cc1 (configuration not stated) |  | inconclusive: 32.6 µM [cytotoxic, partial curve, poor fit]
CCCCn1c(O)c(C=NCCCN(CC)CC)c(=O)[nH]c1=O |  | inconclusive: 13 µM [rising, partial curve, poor fit]
CC12CCC3c4ccc(OC(=O)N(CCCl)CCCl)cc4CCC3C1CCC2O (configuration not stated) |  | active: 5.8 µM
Cc1cc(O)c2c(c1)OC(C)(C)C1=C2CC(C)CC1 (configuration not stated) | inactive: -21.2% | 
CCc1ccc(N2C(=O)NC(=O)/C(=C\C=C\c3ccco3)C2=O)cc1 |  | inconclusive: 20.6 µM [cytotoxic, single point]
COC(=O)[C@@H]1N=C(c2ccc(OC)cc2)O[C@]12C(=O)N(Cc1ccccc1)c1ccccc12 |  | inconclusive: 23.1 µM [cytotoxic, single point]
O=C1C(=O)c2ccccc2-c2ccccc21 |  | active: 4.11 µM
CCCC(=O)Nc1ccc(N2CCN(CC)CC2)c(Cl)c1 |  | inconclusive: 18.4 µM [cytotoxic, single point]
Cc1cccc(OCC(=O)N2CCN(Cc3cc(=O)n4nc(-c5ccccc5Cl)sc4n3)CC2)c1 | inactive: 9.02% | 
COC(=O)C1=C(c2cccc(OCc3ccccc3)c2)C[C@@H]2CC[C@H]1N2C(=O)NCCCOC(C)C | inconclusive: -43.6% [cytotoxic] | 
COc1cc2c(cc1OC)-c1c(OC)c(OC)cc3c1[C@H](C2)N(C)CC3 |  | active: 13 µM
COc1ccc(CNCCc2c[nH]c3ccccc23)c(OC)c1C |  | inconclusive: 32.6 µM [cytotoxic, partial curve, poor fit]
CC(O)(CS(=O)(=O)c1ccccc1)C(=O)Nc1ccc(C(F)(F)F)cc1 (configuration not stated) |  | active: 14.6 µM
COc1ccc(-n2c(C)nc3cc(C(=O)N4CCC5(CC4)OCCO5)ccc32)cc1 |  | inconclusive: 16.4 µM [cytotoxic, single point]
CCN(CC)N=O | inactive: 3.51% | 
CC(Cc1ccccc1Sc1ccc(O)cc1)N(C)C (configuration not stated) | inactive: -19.4% | 
COc1cc([N+](=O)[O-])c2nc(C)ccc2c1[N+](=O)[O-] |  | inconclusive: 16.4 µM [cytotoxic, single point]
